# Tested on: catalase enzyme
# Conditions: 4 mL oxidant solution added to 40 mL untreated water, room temperature, after 4 minutes
smiles,measurement,value
OO [hydrogen peroxide],thickness of head of foam,approximately 1 inches

# — patent US20250261660A1, “FORMULATIONS AND METHODS FOR USE IN OXIDATION TREATMENT APPLICATIONS” (priority 2022, published 2025)
